No constants are given. Whether binding was seen depends on the method and setting. In cells and extracts the contact can be indirect.

Amino acid sequences for entries named in this document (tags omitted).
UniProt Q86WV6: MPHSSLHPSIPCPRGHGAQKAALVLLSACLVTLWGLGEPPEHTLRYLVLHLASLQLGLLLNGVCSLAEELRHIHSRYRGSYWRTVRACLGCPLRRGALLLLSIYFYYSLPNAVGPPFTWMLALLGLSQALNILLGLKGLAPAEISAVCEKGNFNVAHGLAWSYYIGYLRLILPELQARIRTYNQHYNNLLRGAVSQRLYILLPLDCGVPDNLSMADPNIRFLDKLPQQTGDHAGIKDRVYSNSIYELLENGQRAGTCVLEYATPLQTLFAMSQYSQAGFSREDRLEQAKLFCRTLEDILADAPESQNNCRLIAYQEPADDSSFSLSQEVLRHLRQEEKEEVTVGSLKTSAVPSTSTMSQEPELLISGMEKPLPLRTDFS

Data on one molecule can be found in paper PMC6115435.

In this experiment the target is STING (STimulator of INterferon Genes) (human) (UniProt Q86WV6). Nature of the experiment: co-IP; HEK293T cells transfected with overexpression plasmids (results: HEK293 with STING and Nrf2 overexpressed); Pierce IP lysis buffer; cleared lysates incubated overnight at 4 °C with an antibody against STING, then protein G Dynabeads for 2 h at 4 °C; glycine elution pH 2.5; western blotting.

B1: Nrf2 (Nuclear factor (erythroid-derived 2)-like 2) (protein, UniProt Q16236 1-605)
chain: MMDLELPPPGLPSQQDMDLIDILWRQDIDLGVSREVFDFSQRRKEYELEKQKKLEKERQEQLQKEQEKAFFAQLQLDEETGEFLPIQPAQHIQSETSGSANYSQVAHIPKSDALYFDDCMQLLAQTFPFVDDNEVSSATFQSLVPDIPGHIESPVFIATNQAQSPETSVAQVAPVDLDGMQQDIEQVWEELLSIPELQCLNIENDKLVETTMVPSPEAKLTEVDNYHFYSSIPSMEKEVGNCSPHFLNAFEDSFSSILSTEDPNQLTVNSLNSDATVNTDFGDEFYSAFIAEPSISNSMPSPATLSHSLSELLNGPIDVSDLSLCKAFNQNHPESTAEFNDSDSGISLNTSPSVASPEHSVESSSYGDTLLGLSDSEVEELDSAPGSVKQNGPKTPVHSSGDMVQPLSPSQGQSTHVHDAQCENTPEKELPVSPGHRKTPFTKDKHSSRLEAHLTRDELRAKALHIPFPVEKIINLPVVDFNEMMSKEQFNEAQLALIRDIRRRGKNKVAAQNCRKRKLENIVELEQDLDHLKDEKEKLLKEKGENDKSLHLLKKQLSTLYLEVFSMLRDEDGKPYSPSEYSLQQTRDGNVFLVPKSKKPDVKKN
B1: the binding result is listed as “no binding”.
